PMC5972182, “Comparison of a Rat Primary Cell-Based Blood-Brain Barrier Model With Epithelial and Brain Endothelial Cell Lines: Gene Expression and Drug Transport” (Frontiers in Molecular Neuroscience, 2018)

Experiment: Permeability across vinblastine-selected VB-Caco-2 cell layers
Settings: human

Papp A→B: 2.98 ×10⁻⁶ cm/s
Compound: CC(C)c1c(C(=O)Nc2ccccc2)c(-c2ccccc2)c(-c2ccc(F)cc2)n1CC[C@@H](O)C[C@@H](O)CC(=O)O [Atorvastatin, atorvastatin]
